± gives the standard error. The uncertainty is large for many entries.
B1: glmS ribozyme (parent)
chain: AUAAAAGCGCCAGAACUACAGAAAUGUAGUUGACGAGGAGGAGGUUUAUCGAAUUUUCGGCGGAUGCCUCCAAA

Variants of: B1
Test: self-cleavage kobs at 640 uM GlcN6P; higher = faster cleavage; RNA array
Details: with glucosamine-6-phosphate
Summary of the method: (§1)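 In situ transcription by E. coli RNA polymerase produced barcoded ribozyme variants on sequenced MiSeq chips, and a hybridised Cy3 probe tracked them at 37 °C. Glucosamine-6-phosphate was flowed in at 40 μM to 10 mM in HEPES/KCl/Mg(OAc)2 buffer. kcat and KM were taken from weighted Michaelis–Menten fits of kobs values from exponential decay fits.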

Row | Variant | self-cleavage kobs at 640 uM GlcN6P
1 | AUAAAAGCGGCAGAACUACAGAAAUGUAGUUUACGAGGAGGAGGUUUAUCGAAGUUUCGGCGGAUGCAUCCAAA [C10G G32U U54G C68A] | 4.34e-05 ± 3.7e-05 s⁻¹
2 | AUAAAAGCGACCGAACUACAGAAAUGUAGAAGACGAGGAGGAGGUUUAUCGAAUUUUCGGCGGAUGCCUCCAAA [C10A A12C U30A U31A] | 5.2e-05 ± 3.3e-05 s⁻¹
3 | AUAAAUGCGCCAGAUCUACAGAAAUGUAGUUGACGAGGAGGAGGUUUAUCGAAUUUUCGGCGGAUGCCUCCAAA [A6U A15U] | 1.58e-05 ± 1.1e-05 s⁻¹
4 | AUAAAGGCGCCAGCACUACAGAAAUGUAGUUGACGAGGAGGAGGUUUAUCGAAUUUUCGGCGGAUGCCUCCAAA [A6G A14C] | 1.82e-05 ± 1e-05 s⁻¹
5 | AUAAACGCGACAGAACUACAGAAAUGUAGUUGACGAGGAGGAGGUUUAUCGAAUUUUCGGCGGAUGCCUGCAAA [A6C C10A C70G] | 2.75e-05 ± 2.3e-05 s⁻¹
6 | AUAAAAGCGCCAGAACUACAGAAAUGUAGUUGACGAGGAGGAGGUUUAUGGAAUUUUCGGCGUAUGCCUCCAAA [C50G G63U] | 2.48e-05 ± 1.9e-05 s⁻¹
7 | AUAAAAGCUCCAGAACUACAGAAAUGUAGUUGACGAGGAGGAGGUUUAUGGAAUUUUCGGCGGAUGCCUCCAAA [G9U C50G] | 0.000513 ± 0.00041 s⁻¹
8 | AUAAAAGCGACAGAACUACAGAAAUGUAGUUGACGAGGAGGAGGUUUAUCGAAUUUUCGGCGGGUUCGUCCAAA [C10A A64G G66U C68G] | 5.33e-05 ± 2.9e-05 s⁻¹
9 | AUAAAAGGGCCAGAACUACAGAAAUGUAGUUGACGAGGAGGAGGUUUAUCGAAUUUUCGGCGGAUGCCGCCAAA [C8G U69G] | 0.00159 ± 0.0012 s⁻¹
10 | AUAAAUGCGCCAGAACUACAGAAAUGUAGUUGACGAGGAGGAGGUUUAUCGAAUUUUCGGCGGAUGCGUCCAAA [A6U C68G] | 1.65e-05 ± 1.5e-05 s⁻¹
11 | AUAAAAUCGCCAGAACUACAGAAAUGUAGUUGACGAGGAGGAGGUUUAUCGAAGUUUCGGCGGAUGCCUGUAAA [G7U U54G C70G C71U] | 3.79e-05 ± 3.7e-05 s⁻¹
12 | AUAAAUGCGCCAGAACUACAGAAAUGUAGUUGACGAGGAGGAGGUUUAUCGGAUUUUCGGCGGAUGGCUCCAAA [A6U A52G C67G] | 2.92e-05 ± 1.8e-05 s⁻¹

Variants of: B1
Test: self-cleavage kobs at 2500 uM GlcN6P; higher = faster cleavage; RNA array
Details: with glucosamine-6-phosphate
Summary of the method: as §1

Row | Variant | self-cleavage kobs at 2500 uM GlcN6P
13 | AUAAAAGCGGCAGAACUACAGAAAUGUAGUUUACGAGGAGGAGGUUUAUCGAAGUUUCGGCGGAUGCAUCCAAA [C10G G32U U54G C68A] | 6.01e-05 ± 3.5e-05 s⁻¹
14 | AUAAAAGCGCCAGAACUACAGAAAUGUAGUUGACGAGGAGGAGGUUUAUGGAAUUUUCGGCGUAUGCCUCCAAA [C50G G63U] | 2.37e-05 ± 1.7e-05 s⁻¹
15 | AUAAAAGCUCCAGAACUACAGAAAUGUAGUUGACGAGGAGGAGGUUUAUGGAAUUUUCGGCGGAUGCCUCCAAA [G9U C50G] | 2.42e-05 ± 1.6e-05 s⁻¹
16 | AUAAAAGCGACAGAACUACAGAAAUGUAGUUGACGAGGAGGAGGUUUAUCGAAUUUUCGGCGGGUUCGUCCAAA [C10A A64G G66U C68G] | 4.82e-05 ± 2.9e-05 s⁻¹

Variants of: B1
Test: self-cleavage kobs at 40 uM GlcN6P; higher = faster cleavage; RNA array
Details: with glucosamine-6-phosphate
Summary of the method: as §1

Row | Variant | self-cleavage kobs at 40 uM GlcN6P
17 | AUAAAAGCGCCAGAACUACAGAAAUGUAGUUGACGAGGAGGAGGCUUAUCGAAUUGUCGGCGGAUGCCUCCAAA [U45C U56G] | 1.88e-05 ± 1e-05 s⁻¹
18 | AUAAAAGCGCCAGAACUACAGAAAUGUAGUUGACGAGGAGGAGGUUGAUGGAAUUUUCGGCGGAUGCUUCCAAA [U47G C50G C68U] | 2.61e-05 ± 1.8e-05 s⁻¹
19 | AUAAAAGCGCCAGAACUACAGAAAUGUAGUUGACGAGGAGGAGGUUUAUCGGAUUUUCGGCGGAUGCCUGCAAA [A52G C70G] | 2.04e-05 ± 1.3e-05 s⁻¹
20 | AUAAAAGCGCCAGAACUACAGAAAUGUAGUUGACGAGGAGGAGGUUUAUCGAAUUUUCGGCGGAGCCCUCCAAA [U65G G66C] | 2.12e-05 ± 1.8e-05 s⁻¹
21 | AUAAAAGCGCCAGAACUACAGAAAUGUAGUUGACGAGGAGGAGGUUUAUCGAAUUUUCGGCGGAAGCGUCCAAA [U65A C68G] | 2.73e-05 ± 2e-05 s⁻¹
22 | AUAAAAGCGCCAGAACUACAGAAAUGUAGUUGACGAGGAGAAGGUUGAUCGAAUUUUCGGCGGAUGCCUCCAAA [G41A U47G] | 1.44e-05 ± 1.4e-05 s⁻¹
23 | AUAAAAGCGCCAGAACUACAGAAAUGUAGUUGACGAGGAGAAGGUGUAUCGAAUUUUCGGCGGAUGCCUCCAAA [G41A U46G] | 3.8e-05 ± 2e-05 s⁻¹
24 | AUAAAAGCGCCAGAACUACAGAAAUGUAGUUGACGAGGAGUAGGUGUAUCGAAUUUUCGGCGGAUGCCUCCAAA [G41U U46G] | 4.44e-05 ± 2.3e-05 s⁻¹
25 | AUAAAAGCGCCAGAACUACAGAAAUGUAGUUGACGAGGAGGAGGUUUAUGGAAUUAUCGGCGGAUGCCUCCAAA [C50G U56A] | 2.91e-05 ± 1.9e-05 s⁻¹
26 | AUAAAAGCGCCAGAACUACAGAAAUGUAGUUGACGAGGAGGAGGUGUAUCGAAUUUUCGGCGGAUUCCUCCAAA [U46G G66U] | 2.59e-05 ± 1.6e-05 s⁻¹
27 | AUAAAAGCGCCAGAACUACAGAAAUGUAGUUGACGAGGAGGAGGUUUAUGGAAUUUUCGGCGUAUGCCUCCAAA [C50G G63U] | 2.01e-05 ± 1.3e-05 s⁻¹
28 | AUAAAAGCGCCAGAACUACAGAAAUGUAGUUGACGAGGAGGAGGUUUAUCGAAUUUUGGGCGGAUGCCCCCAAA [C58G U69C] | 2.58e-05 ± 1.5e-05 s⁻¹
29 | AUAAAAGCGCCAGAACUACAGAAAUGUAGUUGACGAGGAGGAGGUUUAUCGAAGUUUCGGCGGACGCCUCCAAA [U54G U65C] | 2.34e-05 ± 1.2e-05 s⁻¹
30 | AUAAAAGCGCCAGAACUACAGAAAUGUAGUUGACGAGGAGGAGGUUUAUCGAAGUUUCGGCGGAUCCCUCCAAA [U54G G66C] | 2.1e-05 ± 1.3e-05 s⁻¹
31 | AUAAAAGCGCCAGAACUACAGAAAUGUAGUUGACGAGGAGGAGGUUGUUCGAAUUGUCGGCGGAUGCAUCCAAA [U47G A48U U56G C68A] | 3.23e-05 ± 2.4e-05 s⁻¹
32 | AUAAAAGCGCCAGAACUACAGAAAUGUAGUUGACGAGGAGGAGGUGUAUCGACUUUUCGGCGGAUGCCUCCAAA [U46G A53C] | 1.84e-05 ± 9.8e-06 s⁻¹
33 | AUAAAAGCGCCAGAACUACAGAAAUGUAGUUGACGAGGAGGAGGUAUAUCGAAUUAUCGGCGGAUGCCUCCAAA [U46A U56A] | 1.66e-05 ± 9.5e-06 s⁻¹

2 entries picked at random from the list so far:
Row | Variant | self-cleavage kobs at 40 uM GlcN6P
28 | AUAAAAGCGCCAGAACUACAGAAAUGUAGUUGACGAGGAGGAGGUUUAUCGAAUUUUGGGCGGAUGCCCCCAAA [C58G U69C] | 2.58e-05 ± 1.5e-05 s⁻¹
17 | AUAAAAGCGCCAGAACUACAGAAAUGUAGUUGACGAGGAGGAGGCUUAUCGAAUUGUCGGCGGAUGCCUCCAAA [U45C U56G] | 1.88e-05 ± 1e-05 s⁻¹

Variants of: B1
Test: self-cleavage kobs at 160 uM GlcN6P; higher = faster cleavage; RNA array
Details: with glucosamine-6-phosphate
Summary of the method: as §1

Row | Variant | self-cleavage kobs at 160 uM GlcN6P
34 | AUAAAAGCGCCAGAACUACAGAAAUGUAGUUGACGAGGAGGAGGUUUAUGGAAUUAUCGGCGGAUGCCUCCAAA [C50G U56A] | 3.17e-05 ± 2.4e-05 s⁻¹
35 | AUAAAAGCGCCAGAACUACAGAAAUGUAGUUGACGAGGAGGAGGUUUAUGGAAUUUUCGGCGUAUGCCUCCAAA [C50G G63U] | 3.61e-05 ± 1.8e-05 s⁻¹
36 | AUAAAAGCUCCAGAACUACAGAAAUGUAGUUGACGAGGAGGAGGUUUAUGGAAUUUUCGGCGGAUGCCUCCAAA [G9U C50G] | 2.77e-05 ± 1.7e-05 s⁻¹

Variants of: B1
Test: self-cleavage kobs at 10000 uM GlcN6P; higher = faster cleavage; RNA array
Details: with glucosamine-6-phosphate
Summary of the method: as §1

Row | Variant | self-cleavage kobs at 10000 uM GlcN6P
37 | AUAAAAGCGCCAGAACUACAGAAAUGUAGUUGACGAGGAGGAGGUUUAUGGAAUUAUCGGCGGAUGCCUCCAAA [C50G U56A] | 2.4e-05 ± 1.5e-05 s⁻¹
38 | AUAAAAGCGCCAGAACUACAGAAAUGUAGUUGACGAGGAGGAGGUUUAUCGAAUUUUGGGCGGAUGCCCCCAAA [C58G U69C] | 2.03e-05 ± 1.5e-05 s⁻¹

Reference: the supplement of paper PMC7125110
